The target of test [1] is T1, recombinant human RSPO3 protein (human, UniProt Q9BXY4 22-272).
T1 sequence (looked up): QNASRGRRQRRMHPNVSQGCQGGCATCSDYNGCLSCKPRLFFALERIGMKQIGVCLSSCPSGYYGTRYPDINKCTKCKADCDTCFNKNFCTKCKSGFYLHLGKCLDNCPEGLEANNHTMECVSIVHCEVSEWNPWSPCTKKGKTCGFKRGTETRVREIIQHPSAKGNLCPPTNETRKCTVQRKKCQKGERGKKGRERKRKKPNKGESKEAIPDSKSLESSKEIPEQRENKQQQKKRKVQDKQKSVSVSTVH
Nature of the test: ELISA: biotinylated LGR5 (22-560)-Fc on coated hRSPO3, streptavidin-HRP [A]. Background: An ELISA detects its analyte on a solid surface through an enzyme-linked reagent.

In test [2] the target is T1, recombinant human RSPO3 protein. Nature of the test: ELISA: His-tagged RNF43 on coated hRSPO3, anti-His tag antibody-HRP [B].

Consider two molecules from patent US20210163580A1 (NATIONAL HEALTH RESEARCH INSTITUTES, published 2021).

Results are given in words; binding and its absence hold for the method and conditions named. Some binding calls cover weakened binding; strength is not graded here. Where a sequence is shown, tags or fusion partners need not be part of it.

B1: Recombinant LGR5 (22-560)-Fc (Fc fusion, UniProt O75473 22-560, looked up, not shown: a dimerising Fc or GST)
chain: GSSPRSGVLLRGCPTHCHCEPDGRMLLRVDCSDLGLSELPSNLSVFTSYLDLSMNNISQLLPNPLPSLRFLEELRLAGNALTYIPKGAFTGLYSLKVLMLQNNQLRHVPTEALQNLRSLQSLRLDANHISYVPPSCFSGLHSLRHLWLDDNALTEIPVQAFRSLSALQAMTLALNKIHHIPDYAFGNLSSLVVLHLHNNRIHSLGKKCFDGLHSLETLDLNYNNLDEFPTAIRTLSNLKELGFHSNNIRSIPEKAFVGNPSLITIHFYDNPIQFVGRSAFQHLPELRTLTLNGASQITEFPDLTGTANLESLTLTGAQISSLPQTVCNQLPNLQVLDLSYNLLEDLPSFSVCQKLQKIDLRHNEIYEIKVDTFQQLLSLRSLNLAWNKIAIIHPNAFSTLPSLIKLDLSSNLLSSFPITGLHGLTHLKLTGNHALQSLISSENFPELKVIEMPYAYQCCAFGVCENAYKISNQWNKGDNSSMDDLHKKDAGMFQAQDERDLEDFLLDFEEDLKALHSVQCSPSPGPFKPCEHLLDGWLI
modifications: conjugated with biotin
As to B1, the binding entry in test [1] is recorded as “binds”.

B2: recombinant His-tagged RNF43 (RNF43-His 16108-H08H, Sino Biological) (receptor, UniProt Q68DV7 24-197, looked up, not shown: small tags and cut ends)
chain: GFGRTGLVLAAAVESERSAEQKAIIRVIPLKMDPTGKLNLTLEGVFAGVAEITPAEGKLMQSHPLYLCNASDDDNLEPGFISIVKLESPRRAPRPCLSLASKARMAGERGASAVLFDITEDRAAAEQLQQPLGLTWPVVLIWGNDAEKLMEFVYKNQKAHVRIELKEPPAWPDY
Take B2: in test [2], the binding result is listed as “binds”.
